For test [1], the target named is N-terminal 3xFLAG tagged RPL-22 expressed from the endogenous rpl-22 locus, allele rpl-22(wbm58) (C. elegans) (UniProt P52819). In words: co-IP.
Test [2] concerns the target N-terminal 3xFLAG tagged RPL-22 expressed from tissue-specific single-copy SKI TRIP cassettes (rpl-22 cDNA) (C. elegans) (UniProt P52819). The test can be described thus: co-IP.

Sequences of proteins named here, by UniProt entry; tags and fusion partners are left off.
UniProt P52819: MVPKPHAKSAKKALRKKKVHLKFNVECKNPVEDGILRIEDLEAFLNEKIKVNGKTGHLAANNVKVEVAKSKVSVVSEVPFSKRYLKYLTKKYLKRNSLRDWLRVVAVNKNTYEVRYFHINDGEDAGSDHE

These are yes or no findings as the source states them, for the method shown. In cells and extracts the contact can be indirect. Some entries that bind do so weakly or less than the wild type.

B1: RPS-6, a protein of the small ribosomal subunit (protein, UniProt Q9NEN6 1-246)
chain: MRLNFAYPATGLQKSFEVDEEKKLRLFFEKRMSQEVAIDALGDEWKGYVVRIGGGNDKQGFPMKQGILTNGRVRLLLKKGQSCYRERKNGERKRKSVRGCIVDANMSALSLVIVKKGDGEIEGLTDSVLPRKLGPKRASKIRKLFNLTKHDDVTKYVITHDKTFPDGVTKTIAPKIQRLITPARIARKKYLLRQKRNQKIKMRDDAAAYHKLLAKYSKEEHDAKIARRRSSASHHSESEVKKTSKK
For the molecule B1, the binding result in test [1] and in test [2] was “binds” in each case.

These data come from paper doi:10.1101/2021.12.22.473890.
